{"sequences": {"note": "The chains behind the UniProt entries cited, without tags or fusion partners. Residues count along the entry.", "UniProt P07996, residues 19-1170": "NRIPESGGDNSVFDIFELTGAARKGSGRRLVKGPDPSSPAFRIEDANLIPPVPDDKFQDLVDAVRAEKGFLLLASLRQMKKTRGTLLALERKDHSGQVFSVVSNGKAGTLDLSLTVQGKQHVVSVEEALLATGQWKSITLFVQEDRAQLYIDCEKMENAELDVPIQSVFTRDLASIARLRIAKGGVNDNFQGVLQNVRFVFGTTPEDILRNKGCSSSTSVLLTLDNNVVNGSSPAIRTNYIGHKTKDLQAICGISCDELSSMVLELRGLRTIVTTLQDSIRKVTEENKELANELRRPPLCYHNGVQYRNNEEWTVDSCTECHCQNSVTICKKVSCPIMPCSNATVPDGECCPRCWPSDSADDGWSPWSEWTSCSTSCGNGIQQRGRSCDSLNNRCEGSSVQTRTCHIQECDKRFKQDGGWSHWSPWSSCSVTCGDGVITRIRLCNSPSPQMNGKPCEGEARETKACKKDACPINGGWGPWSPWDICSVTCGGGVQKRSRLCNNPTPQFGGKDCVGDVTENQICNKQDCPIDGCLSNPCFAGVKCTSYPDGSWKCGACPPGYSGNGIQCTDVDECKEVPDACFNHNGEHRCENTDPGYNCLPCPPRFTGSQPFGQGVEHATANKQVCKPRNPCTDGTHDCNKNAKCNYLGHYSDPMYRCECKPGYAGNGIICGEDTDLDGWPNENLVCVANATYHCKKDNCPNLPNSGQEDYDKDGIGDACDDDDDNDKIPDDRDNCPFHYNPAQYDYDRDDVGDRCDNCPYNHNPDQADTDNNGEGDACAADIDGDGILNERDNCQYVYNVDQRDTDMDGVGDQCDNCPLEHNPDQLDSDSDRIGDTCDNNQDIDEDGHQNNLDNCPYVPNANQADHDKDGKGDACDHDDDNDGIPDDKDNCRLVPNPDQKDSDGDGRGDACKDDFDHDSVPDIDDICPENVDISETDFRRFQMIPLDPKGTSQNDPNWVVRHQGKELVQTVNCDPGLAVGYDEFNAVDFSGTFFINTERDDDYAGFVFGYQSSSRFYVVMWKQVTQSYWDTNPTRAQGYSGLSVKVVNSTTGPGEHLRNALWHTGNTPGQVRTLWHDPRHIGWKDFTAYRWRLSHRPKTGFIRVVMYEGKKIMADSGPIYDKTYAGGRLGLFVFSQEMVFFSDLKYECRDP"}, "source": "patent US20020197697A1", "target": "thrombospondin-1 (human) (UniProt P07996)", "assay": "gel permeation chromatography on Sephadex G200 of 125I-heparin with rPF4 and TSP-1; association through heparin", "note": "No constants are given. Whether binding was seen depends on the method and setting. Some binding calls cover weakened binding; strength is not graded here."}
{"binder": "recombinant platelet factor 4 (ligand, UniProt P02776 32-101, looked up) EAEEDGDLQCLCVKTTSQVRPRHITSLEVIKAGPHCPTAQLIATLKNGRKICLDLQAPLYKKIIKKLLES", "values": [{"measurement": "binding", "value": "binds"}]}
